This is one part of the list. Single values are uncertain, as repeats are few or missing.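 Imaging used 1,536-well plates; nuclei positive for cleaved PARP by antibody were divided by total DNA-stained nuclei to yield the apoptosis fraction. Doses for screening kept most cells viable, and cell lines differ markedly in resting and induced cleaved-PARP levels.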
What was measured:
Test in all cases: cleaved PARP positive nuclei fraction relative to DMSO control; melanoma cells; higher = more apoptosis
Settings in all cases: library dose: low library concentration; 72 h
[1] = system: CBRC034 (line from a melanoma biopsy)
[2] = system: COLO792
[3] = system: COLO800
[4] = system: COLO829
[5] = system: G361
[6] = system: IPC-298
[7] = system: IST-MEL1
[8] = system: LB2518-MEL
[9] = system: LOXIMVI
[10] = system: MZ2-MEL
[11] = system: MeWo
[12] = system: RPMI7951
[13] = system: RVH-421
[14] = system: SkMel28
[15] = system: SkMel30
[16] = system: SkMel5
[17] = system: UACC257
[18] = system: UACC62

| SMILES | cleaved PARP positive nuclei fraction [1] | cleaved PARP positive nuclei fraction [2] | cleaved PARP positive nuclei fraction [3] | cleaved PARP positive nuclei fraction [4] | cleaved PARP positive nuclei fraction [5] | cleaved PARP positive nuclei fraction [6] | cleaved PARP positive nuclei fraction [7] | cleaved PARP positive nuclei fraction [8] | cleaved PARP positive nuclei fraction [9] | cleaved PARP positive nuclei fraction [10] | cleaved PARP positive nuclei fraction [11] | cleaved PARP positive nuclei fraction [12] | cleaved PARP positive nuclei fraction [13] | cleaved PARP positive nuclei fraction [14] | cleaved PARP positive nuclei fraction [15] | cleaved PARP positive nuclei fraction [16] | cleaved PARP positive nuclei fraction [17] | cleaved PARP positive nuclei fraction [18] |
| --- | --- | --- | --- | --- | --- | --- | --- | --- | --- | --- | --- | --- | --- | --- | --- | --- | --- | --- |
| Cn1c(Nc2ccc(C(F)(F)F)cc2)nc2cc(Oc3ccnc(-c4ncc(C(F)(F)F)[nH]4)c3)ccc21 + O=c1cc(-c2cccc3c2Sc2ccccc2S3)oc(N2CCOCC2)c1 [KU55933] (first compound 0.08 µM, partner dose 1 µM) | 170% | 344% | 104% | 66.4% | 166% | 148% | 33.9% | 283% | 87% | 173% | 80.8% | 79.7% | 77.4% | 261% | 21.3% | 35.8% | 671% | 75.1% |
| C[C@@H]1CCN(C(=O)CC#N)C[C@@H]1N(C)c1ncnc2[nH]ccc12 + Cc1cc([N+](=O)[O-])ccc1NS(=O)(=O)c1cc(Cl)ccc1Cl [FH535] (first compound 1 µM, partner dose 1 µM) | 545% | 107% | 159% | 96.8% | 86.9% | 92.8% | 47.3% | 84.9% | 60.3% | 88.3% | 56.4% | 279% | 215% | 89.8% | 121% | 173% | 127% | 78.9% |
| Cn1nnc2c(C(N)=O)ncn2c1=O [temozolomide] + O=C(O)C(=O)Nc1sc2c(c1C(=O)O)CCNC2 [TCS401] (first compound 2 µM, partner dose 1.66667 µM) | 138% | 68.8% | 47.8% | 132% | 121% | 47.7% | 58.8% | 76.8% | 84.4% | 85.6% | 48.9% | 153% | 135% | 65.9% | 73.1% | 53.9% | 78.2% | 32.7% |
| CC1(C)NC(=O)N(c2ccc([N+](=O)[O-])c(C(F)(F)F)c2)C1=O [nilutamide] + CCc1ccc(CCOc2ccc(CC3SC(=O)NC3=O)cc2)nc1 [pioglitazone] (first compound 1 µM, partner dose 2 µM) | 93% | 112% | 115% | 62.3% | 149% | 81.9% | 110% | 82% | 68.4% | 59.3% | 252% | 81.6% | 168% | 168% | 144% | 28% | 117% | 74.7% |
| COc1cc(Nc2ncc(F)c(Nc3ccc4c(n3)NC(=O)C(C)(C)O4)n2)cc(OC)c1OC [Tamatinib] + O=C1NC(=O)/C(=C/c2ccc(-c3ccc(F)cc3O)o2)S1 [AS252424] (first compound 0.4 µM, partner dose 1 µM) | 193% | 256% | 97.2% | 129% | 113% | 277% | 251% | 493% | 288% | 160% | 132% | 265% | 123% | 117% | 44% | 66.3% | 324% | 247% |
| OCCn1cc(-c2cnc3nnn(Cc4ccc5ncccc5c4)c3n2)cn1 + O=C(Nc1ccccc1)c1cc([N+](=O)[O-])ccc1Cl [GW9662] (first compound 1 µM, partner dose 2 µM) | 81.1% | 38.4% | 145% | 51% | 122% | 83.3% | 106% | 187% | 86.8% | 89.1% | 115% | 73.9% | 108% | 132% | 44.3% | 362% | 44.6% | 140% |
| CC(C)(C)c1cnc(CSc2cnc(NC(=O)C3CCNCC3)s2)o1 + N#Cc1c(O)c2c(-c3ccc(-c4ccccc4O)cc3)csc2[nH]c1=O [A769662] (first compound 0.01 µM, partner dose 2 µM) | 45% | 85% | 119% | 139% | 27.3% | 86% | 28.9% | 194% | 91% | 74% | 81.7% | 52.3% | 139% | 216% | 32% | 55.3% | 59.7% | 41.1% |
| CC1(C)NC(=O)N(c2ccc([N+](=O)[O-])c(C(F)(F)F)c2)C1=O [nilutamide] + O=C(O)C(=O)Nc1sc2c(c1C(=O)O)CCNC2 [TCS401] (first compound 1 µM, partner dose 1.66667 µM) | 82.9% | 65% | 135% | 134% | 74.7% | 38.9% | 39.3% | 81.8% | 70.4% | 86.8% | 112% | 81% | 30.9% | 150% | 29.3% | 112% | 51% | 129% |
| NC(=O)Nc1cc(-c2cccc(F)c2)sc1C(=O)N[C@H]1CCCNC1 + COc1cc2ncnc(Nc3ccc(Oc4ccccc4)cc3)c2cc1OC [SrcI1] (first compound 0.02 µM, partner dose 2 µM) | 104% | 135% | 105% | 178% | 91.5% | 80.6% | 96.3% | 63.8% | 85.5% | 53.4% | 81% | 196% | 75.2% | 164% | 66.7% | 29.7% | 58.1% | 41.4% |
| NC(=O)Nc1cc(-c2cccc(F)c2)sc1C(=O)N[C@H]1CCCNC1 + O=c1cc(-c2cccc3c2Sc2ccccc2S3)oc(N2CCOCC2)c1 [KU55933] (first compound 0.02 µM, partner dose 1 µM) | 88.5% | 64.4% | 159% | 116% | 146% | 305% | 63.9% | 64.9% | 26.6% | 99.5% | 25.5% | 96.2% | 58.9% | 67.3% | 44.8% | 61.3% | 57.9% | 182% |

Whole records as entered above. Values in the order: cleaved PARP positive nuclei fraction [1] | cleaved PARP positive nuclei fraction [2] | cleaved PARP positive nuclei fraction [3] | cleaved PARP positive nuclei fraction [4] | cleaved PARP positive nuclei fraction [5] | cleaved PARP positive nuclei fraction [6] | cleaved PARP positive nuclei fraction [7] | cleaved PARP positive nuclei fraction [8] | cleaved PARP positive nuclei fraction [9] | cleaved PARP positive nuclei fraction [10] | cleaved PARP positive nuclei fraction [11] | cleaved PARP positive nuclei fraction [12] | cleaved PARP positive nuclei fraction [13] | cleaved PARP positive nuclei fraction [14] | cleaved PARP positive nuclei fraction [15] | cleaved PARP positive nuclei fraction [16] | cleaved PARP positive nuclei fraction [17] | cleaved PARP positive nuclei fraction [18]
CC(C)(C)c1cnc(CSc2cnc(NC(=O)C3CCNCC3)s2)o1 + N#Cc1c(O)c2c(-c3ccc(-c4ccccc4O)cc3)csc2[nH]c1=O [A769662] (first compound 0.01 µM, partner dose 2 µM) reads 45% | 85% | 119% | 139% | 27.3% | 86% | 28.9% | 194% | 91% | 74% | 81.7% | 52.3% | 139% | 216% | 32% | 55.3% | 59.7% | 41.1%
C[C@@H]1CCN(C(=O)CC#N)C[C@@H]1N(C)c1ncnc2[nH]ccc12 + Cc1cc([N+](=O)[O-])ccc1NS(=O)(=O)c1cc(Cl)ccc1Cl [FH535] (first compound 1 µM, partner dose 1 µM) reads 545% | 107% | 159% | 96.8% | 86.9% | 92.8% | 47.3% | 84.9% | 60.3% | 88.3% | 56.4% | 279% | 215% | 89.8% | 121% | 173% | 127% | 78.9%
